Measured data: PubChem BioAssay AID504786 (Drosophila RNAi Screening Center, 2011)

Assay: 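Positive regulators of HIF-driven reporter output in Drosophila cells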 (primary screen)
Cell system: Drosophila S2 cells with a stable HIF luciferase reporter
Knock-down reagent: long dsRNA against Drosophila genes, about 0.2 µg dsRNA per well of a 384-well plate
Duration: three days of knock-down, then 20 h of DFO before reading
Challenge: desferrioxamine (DFO) at 100 µM, an iron chelator that mimics hypoxia, for 20 h
Detection: 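HIF reporter luminescence in cells given 100 µM DFO for 20 h, using the mouse ldh-a hypoxia-response element, scored as per-plate z-scores; higher means greater loss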
Reading the numbers: z-score: higher = stronger loss of HIF reporter signal
In all, the deposit lists about 21,000 reagents; below is an unselected part of those that have a named target and a result. 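Primary screen; positive scores mean lost reporter signal, so the sign may be inverted from the usual convention.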

gene knocked down | DRSC id | z-score, replicate 1 | z-score, replicate 2 | z-score, replicate 3 | z-score, replicate 4
cic | DRSC14276 | 0.3 | -0.6 | – | –
cic | DRSC15708 | 1 | -1 | – | –
cic | DRSC16918 | 0.7 | 1.2 | – | –
cic | DRSC21243 | -0.3 | -0.3 | – | –
Nf-YA | DRSC10385 | 1.6 | 0.2 | – | –
Drgx | DRSC00278 | -0.3 | -0.2 | – | –
Drgx | DRSC00537 | -0.5 | -0.8 | – | –
Rtf1 | DRSC04085 | 3.4 | 3.8 | – | –
CG3168 | DRSC18287 | -0.1 | 0 | – | –
Spt20 | DRSC10280 | 0.2 | -0.6 | – | –
CG2291 | DRSC06836 | -0.3 | -0.3 | – | –
cno | DRSC12054 | -0.4 | 0.3 | – | –
cno | DRSC12374 | 1.8 | 4.6 | – | –
nom | DRSC16389 | -0.4 | -0.8 | – | –
Flad1 | DRSC19898 | -0.3 | -0.3 | – | –
CG3494 | DRSC04375 | -0.3 | -0.2 | – | –
beat-VII | DRSC13780 | -0.1 | -0.2 | – | –
beat-VII | DRSC14743 | -0.4 | -0.5 | – | –
beat-VII | DRSC14744 | -0.7 | -0.3 | – | –
CG9674 | DRSC11088 | -0.3 | -0.2 | – | –
CG9674 | DRSC11089 | 0 | -0.1 | – | –
CG14298 | DRSC14777 | -0.9 | 0.1 | – | –
RpLP2 | DRSC07539 | 5.1 | 6.2 | – | –
CG14607 | DRSC12551 | 0.3 | 0.6 | – | –
pim | DRSC03591 | 0.1 | 0.2 | – | –
PICK1 | DRSC02936 | -0.4 | -0.3 | – | –
CG42541 | DRSC17973 | -0.3 | 0 | – | –
CG42541 | DRSC18119 | 1.9 | 4.6 | – | –
CG42541 | DRSC18120 | -0.2 | 0.2 | – | –
betaTub85D | DRSC16910 | -0.1 | 0.9 | – | –
CG7115 | DRSC02000 | -0.1 | 0.2 | – | –
CG9040 | DRSC11053 | -0.5 | 0.6 | – | –
Cypl | DRSC08362 | -0.3 | 0 | – | –
CG34266 | DRSC08323 | -0.5 | 0 | – | –
Mdh2 (retired record) | DRSC16361 | -0.5 | 0 | – | –
rasp | DRSC08191 | -0.4 | -0.3 | – | –
Aptx | DRSC15768 | -0.4 | 0.3 | – | –
CG30479 | DRSC06735 | -0.2 | -0.2 | – | –
TTLL15 | DRSC15543 | 0 | 0 | – | –
EcR | DRSC04906 | -0.4 | 1.1 | – | –
EcR | DRSC04910 | 0.5 | 0.8 | – | –
rdo | DRSC02452 | 0.3 | 1.1 | – | –
CR14033 | DRSC02358 | -0.4 | -0.4 | – | –
Sar1 | DRSC17049 | -0.4 | -0.8 | – | –
SP | DRSC09664 | -0.2 | -1 | – | –
mv | DRSC08208 | -0.3 | -0.4 | – | –
mv | DRSC08570 | 0 | 0.2 | – | –
CG8745 | DRSC11033 | 1.8 | -0.4 | – | –
CG8745 | DRSC11034 | -0.1 | -0.2 | – | –
CG6683 | DRSC10694 | -0.4 | -0.4 | – | –

A stretch of the results above, for reference:
gene knocked down | DRSC id | z-score, replicate 1 | z-score, replicate 2 | z-score, replicate 3 | z-score, replicate 4
PICK1 | DRSC02936 | -0.4 | -0.3 | – | –
CG42541 | DRSC17973 | -0.3 | 0 | – | –
CG42541 | DRSC18119 | 1.9 | 4.6 | – | –
CG42541 | DRSC18120 | -0.2 | 0.2 | – | –

The list goes on:
gene knocked down | DRSC id | z-score, replicate 1 | z-score, replicate 2 | z-score, replicate 3 | z-score, replicate 4
vtd | DRSC20839 | 0.1 | -0.2 | – | –
CG13198 | DRSC06323 | -0.1 | -0.6 | – | –
CG7987 | DRSC16357 | -0.2 | -0.5 | – | –
CG8388 | DRSC07157 | -0.2 | -0.4 | – | –
CG16965 | DRSC02547 | -0.3 | -0.3 | – | –
CG7168 | DRSC16208 | -0.2 | -0.4 | – | –
Jhbp12 | DRSC14621 | -0.1 | 1.2 | – | –
Lnk | DRSC16729 | -0.3 | 0 | – | –
CG3437 | DRSC10366 | -0.3 | 0.2 | – | –
CG42552 (retired record) | DRSC11512 | -0.6 | -0.7 | – | –
PIG-L | DRSC15577 | 1 | 0.3 | – | –
CG3662 | DRSC00626 | -0.2 | -0.3 | – | –
b6 | DRSC18740 | 0.1 | 0 | – | –
CG43328 | DRSC05640 | 0.2 | -0.2 | – | –
COX5A | DRSC16611 | 1.4 | 1.5 | – | –
NKAIN | DRSC04531 | -0.1 | 0.1 | – | –
inaF-A | DRSC19660 | -0.4 | -0.5 | – | –
ari-1 | DRSC20308 | -0.3 | -0.6 | – | –
CG4455 | DRSC01983 | -0.4 | -0.5 | – | –
Nop60B | DRSC04627 | -0.1 | -0.3 | – | –
Tailor | DRSC12526 | 0.1 | -0.4 | – | –
E(spl)m8-HLH | DRSC16654 | -0.5 | -0.7 | – | –
Mtr4 | DRSC03560 | 2.3 | 3.6 | – | –
Su(P) | DRSC11291 | -0.2 | -0.9 | – | –
Sos | DRSC03439 | -0.2 | 1.9 | – | –
CG17816 | DRSC15277 | 0.2 | -0.3 | 0 | -0.1
VhaAC39-1 | DRSC18242 | -0.4 | -1 | – | –
CG13833 | DRSC14683 | -0.4 | -0.1 | – | –
CG13001 | DRSC19520 | 0 | -0.2 | -0.5 | -0.2
CG10587 | DRSC11627 | -0.3 | -0.2 | – | –
ChAT | DRSC13314 | 0.5 | -0.1 | – | –
ChAT | DRSC16609 | -1.2 | -0.4 | – | –
CG12128 | DRSC06104 | -0.2 | -0.2 | – | –
